Assay results reported in the supplement of paper PMC10849652.
Some of the results follow.

By UniProt entry, the sequences of proteins in these tests, tags left out. Where a name states a change or a piece, a line headed by the entry shows the natural chain unless it says otherwise.
UniProt P13693: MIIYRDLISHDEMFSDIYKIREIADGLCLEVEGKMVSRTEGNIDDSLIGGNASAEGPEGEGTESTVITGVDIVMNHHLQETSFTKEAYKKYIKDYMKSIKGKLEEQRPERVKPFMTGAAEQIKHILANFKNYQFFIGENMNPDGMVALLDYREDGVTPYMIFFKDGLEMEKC
UniProt Q15785: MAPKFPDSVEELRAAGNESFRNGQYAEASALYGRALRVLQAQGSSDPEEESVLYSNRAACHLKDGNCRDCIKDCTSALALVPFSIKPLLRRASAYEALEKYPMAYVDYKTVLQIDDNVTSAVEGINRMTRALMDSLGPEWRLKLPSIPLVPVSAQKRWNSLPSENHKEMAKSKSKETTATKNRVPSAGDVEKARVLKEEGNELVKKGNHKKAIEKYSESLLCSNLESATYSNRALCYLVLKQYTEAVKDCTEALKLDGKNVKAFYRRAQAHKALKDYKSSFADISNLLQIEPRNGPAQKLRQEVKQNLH
UniProt Q9H4I3: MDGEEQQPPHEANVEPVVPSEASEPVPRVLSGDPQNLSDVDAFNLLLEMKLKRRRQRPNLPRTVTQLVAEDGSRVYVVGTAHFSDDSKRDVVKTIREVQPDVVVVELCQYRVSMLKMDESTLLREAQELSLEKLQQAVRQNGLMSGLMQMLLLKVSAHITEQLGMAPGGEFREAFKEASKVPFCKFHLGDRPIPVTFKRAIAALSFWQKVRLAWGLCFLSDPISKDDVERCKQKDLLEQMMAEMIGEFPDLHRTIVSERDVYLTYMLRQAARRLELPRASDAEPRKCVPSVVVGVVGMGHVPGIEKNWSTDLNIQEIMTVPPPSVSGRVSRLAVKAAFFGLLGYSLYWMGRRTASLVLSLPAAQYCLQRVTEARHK
UniProt Q9BVT8: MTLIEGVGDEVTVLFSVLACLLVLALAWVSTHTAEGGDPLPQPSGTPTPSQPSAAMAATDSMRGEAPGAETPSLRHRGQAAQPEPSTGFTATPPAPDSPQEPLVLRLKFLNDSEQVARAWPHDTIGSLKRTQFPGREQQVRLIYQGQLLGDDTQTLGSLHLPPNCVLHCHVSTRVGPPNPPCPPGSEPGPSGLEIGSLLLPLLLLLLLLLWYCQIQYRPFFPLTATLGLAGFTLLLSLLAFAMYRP
UniProt Q5JTV8: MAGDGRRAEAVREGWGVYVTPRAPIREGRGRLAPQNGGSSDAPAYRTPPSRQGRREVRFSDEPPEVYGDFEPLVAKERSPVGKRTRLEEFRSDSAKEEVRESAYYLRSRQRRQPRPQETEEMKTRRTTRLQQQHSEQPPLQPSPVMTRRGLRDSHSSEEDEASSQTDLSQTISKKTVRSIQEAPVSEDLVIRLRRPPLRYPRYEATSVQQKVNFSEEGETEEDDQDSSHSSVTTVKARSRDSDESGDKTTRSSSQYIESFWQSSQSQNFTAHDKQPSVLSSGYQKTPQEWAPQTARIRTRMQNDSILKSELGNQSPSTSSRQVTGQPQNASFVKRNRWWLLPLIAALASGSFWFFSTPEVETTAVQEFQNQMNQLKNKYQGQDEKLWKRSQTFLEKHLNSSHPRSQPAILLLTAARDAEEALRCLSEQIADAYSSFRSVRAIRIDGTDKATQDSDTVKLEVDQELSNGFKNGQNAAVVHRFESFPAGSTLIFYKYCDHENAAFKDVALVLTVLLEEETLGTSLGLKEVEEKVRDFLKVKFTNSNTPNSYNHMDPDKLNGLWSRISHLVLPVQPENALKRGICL
UniProt Q9BTX3: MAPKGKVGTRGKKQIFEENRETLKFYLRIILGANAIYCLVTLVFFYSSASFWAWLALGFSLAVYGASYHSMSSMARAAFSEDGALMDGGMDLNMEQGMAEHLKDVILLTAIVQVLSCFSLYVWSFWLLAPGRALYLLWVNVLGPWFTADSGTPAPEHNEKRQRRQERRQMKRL
UniProt O00220, whole entry, looked up: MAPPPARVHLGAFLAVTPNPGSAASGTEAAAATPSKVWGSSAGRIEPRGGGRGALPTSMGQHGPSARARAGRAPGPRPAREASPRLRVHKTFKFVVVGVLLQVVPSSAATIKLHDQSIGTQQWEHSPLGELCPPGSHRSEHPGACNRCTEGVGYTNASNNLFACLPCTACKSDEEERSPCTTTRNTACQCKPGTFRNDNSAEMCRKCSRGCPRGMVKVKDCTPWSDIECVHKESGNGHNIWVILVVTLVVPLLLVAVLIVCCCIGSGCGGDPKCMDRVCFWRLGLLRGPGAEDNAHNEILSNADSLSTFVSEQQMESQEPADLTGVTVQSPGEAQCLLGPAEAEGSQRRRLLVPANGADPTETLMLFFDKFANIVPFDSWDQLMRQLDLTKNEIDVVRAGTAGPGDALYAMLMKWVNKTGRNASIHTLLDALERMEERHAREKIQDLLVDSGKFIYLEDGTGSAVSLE
UniProt Q96MH6: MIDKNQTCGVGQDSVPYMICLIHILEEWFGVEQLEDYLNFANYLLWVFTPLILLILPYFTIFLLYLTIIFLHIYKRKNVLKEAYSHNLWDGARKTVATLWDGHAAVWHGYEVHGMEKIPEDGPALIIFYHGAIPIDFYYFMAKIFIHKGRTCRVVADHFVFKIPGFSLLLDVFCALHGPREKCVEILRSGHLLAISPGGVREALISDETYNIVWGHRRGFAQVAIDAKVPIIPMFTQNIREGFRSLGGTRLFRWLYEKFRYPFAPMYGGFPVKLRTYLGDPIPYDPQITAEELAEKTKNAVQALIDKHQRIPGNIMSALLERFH
UniProt Q9NYL9: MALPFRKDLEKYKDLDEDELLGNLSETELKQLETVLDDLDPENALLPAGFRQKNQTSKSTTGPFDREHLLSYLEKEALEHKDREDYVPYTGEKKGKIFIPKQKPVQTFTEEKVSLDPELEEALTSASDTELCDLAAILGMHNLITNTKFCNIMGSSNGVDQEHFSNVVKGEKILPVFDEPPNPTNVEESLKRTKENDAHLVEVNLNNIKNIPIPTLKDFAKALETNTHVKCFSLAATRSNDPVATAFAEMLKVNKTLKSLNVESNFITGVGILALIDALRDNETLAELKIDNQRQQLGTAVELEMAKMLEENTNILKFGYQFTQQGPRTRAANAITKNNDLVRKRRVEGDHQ
UniProt P57088: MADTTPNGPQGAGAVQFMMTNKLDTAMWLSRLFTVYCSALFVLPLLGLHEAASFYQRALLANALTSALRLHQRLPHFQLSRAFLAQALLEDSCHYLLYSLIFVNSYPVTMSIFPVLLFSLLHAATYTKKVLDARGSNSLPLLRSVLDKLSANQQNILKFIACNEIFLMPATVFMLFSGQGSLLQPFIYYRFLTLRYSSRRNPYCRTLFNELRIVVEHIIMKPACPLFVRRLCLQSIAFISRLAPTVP
UniProt P06753, whole entry, looked up: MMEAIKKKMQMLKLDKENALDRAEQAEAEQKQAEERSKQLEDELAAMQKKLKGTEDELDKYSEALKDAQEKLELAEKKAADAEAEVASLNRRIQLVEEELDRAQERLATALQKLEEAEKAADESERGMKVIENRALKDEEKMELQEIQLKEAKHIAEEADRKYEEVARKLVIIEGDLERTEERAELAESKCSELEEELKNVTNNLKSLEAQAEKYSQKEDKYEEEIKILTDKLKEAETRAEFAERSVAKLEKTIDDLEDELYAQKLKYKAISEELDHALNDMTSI
UniProt Q9UPQ9, whole entry, looked up: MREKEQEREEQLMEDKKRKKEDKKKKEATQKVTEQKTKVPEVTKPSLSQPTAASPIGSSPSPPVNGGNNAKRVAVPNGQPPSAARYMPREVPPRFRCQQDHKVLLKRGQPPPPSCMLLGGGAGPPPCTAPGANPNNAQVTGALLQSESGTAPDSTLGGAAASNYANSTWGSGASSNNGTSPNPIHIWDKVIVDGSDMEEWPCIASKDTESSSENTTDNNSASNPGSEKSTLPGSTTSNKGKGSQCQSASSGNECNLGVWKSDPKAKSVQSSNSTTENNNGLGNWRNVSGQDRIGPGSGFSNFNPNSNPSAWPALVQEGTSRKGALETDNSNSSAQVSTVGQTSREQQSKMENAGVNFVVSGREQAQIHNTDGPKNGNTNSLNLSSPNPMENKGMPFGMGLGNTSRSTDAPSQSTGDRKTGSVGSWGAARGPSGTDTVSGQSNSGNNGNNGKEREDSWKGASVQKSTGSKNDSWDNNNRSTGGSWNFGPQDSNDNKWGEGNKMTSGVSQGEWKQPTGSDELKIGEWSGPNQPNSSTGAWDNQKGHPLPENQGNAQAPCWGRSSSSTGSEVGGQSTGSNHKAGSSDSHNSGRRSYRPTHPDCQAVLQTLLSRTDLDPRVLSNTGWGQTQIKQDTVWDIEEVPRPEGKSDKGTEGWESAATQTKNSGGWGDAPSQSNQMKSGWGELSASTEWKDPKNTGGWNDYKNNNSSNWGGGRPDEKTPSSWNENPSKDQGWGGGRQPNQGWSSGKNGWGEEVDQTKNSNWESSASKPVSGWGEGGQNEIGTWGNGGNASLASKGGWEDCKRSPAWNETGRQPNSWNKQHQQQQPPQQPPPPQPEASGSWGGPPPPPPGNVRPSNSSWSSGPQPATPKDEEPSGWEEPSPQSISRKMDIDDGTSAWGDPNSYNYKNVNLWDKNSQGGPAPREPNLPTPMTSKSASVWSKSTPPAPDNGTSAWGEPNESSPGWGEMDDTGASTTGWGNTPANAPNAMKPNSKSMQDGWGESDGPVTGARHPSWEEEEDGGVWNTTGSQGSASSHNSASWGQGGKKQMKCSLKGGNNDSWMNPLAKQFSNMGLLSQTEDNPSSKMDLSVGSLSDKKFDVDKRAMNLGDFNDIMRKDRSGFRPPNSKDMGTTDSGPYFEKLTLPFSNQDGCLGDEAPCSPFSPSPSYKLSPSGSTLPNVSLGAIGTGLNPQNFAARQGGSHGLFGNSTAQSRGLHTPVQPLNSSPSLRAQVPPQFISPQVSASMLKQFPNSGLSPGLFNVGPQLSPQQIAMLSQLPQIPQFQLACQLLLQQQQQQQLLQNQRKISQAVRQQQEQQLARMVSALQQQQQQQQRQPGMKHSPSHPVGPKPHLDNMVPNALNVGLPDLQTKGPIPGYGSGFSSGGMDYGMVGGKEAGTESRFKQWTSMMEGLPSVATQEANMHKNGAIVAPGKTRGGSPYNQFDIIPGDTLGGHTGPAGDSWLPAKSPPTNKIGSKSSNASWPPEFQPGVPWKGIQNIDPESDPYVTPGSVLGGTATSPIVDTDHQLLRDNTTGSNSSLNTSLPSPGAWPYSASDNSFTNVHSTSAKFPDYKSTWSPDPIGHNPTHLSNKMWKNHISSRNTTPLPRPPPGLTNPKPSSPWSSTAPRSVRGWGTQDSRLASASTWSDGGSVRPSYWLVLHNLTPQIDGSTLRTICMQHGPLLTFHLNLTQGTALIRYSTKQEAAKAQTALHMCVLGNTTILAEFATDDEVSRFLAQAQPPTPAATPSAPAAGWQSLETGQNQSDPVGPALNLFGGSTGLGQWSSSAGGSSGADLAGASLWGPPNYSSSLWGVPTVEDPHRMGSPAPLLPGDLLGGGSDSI
UniProt O94826, whole entry, looked up: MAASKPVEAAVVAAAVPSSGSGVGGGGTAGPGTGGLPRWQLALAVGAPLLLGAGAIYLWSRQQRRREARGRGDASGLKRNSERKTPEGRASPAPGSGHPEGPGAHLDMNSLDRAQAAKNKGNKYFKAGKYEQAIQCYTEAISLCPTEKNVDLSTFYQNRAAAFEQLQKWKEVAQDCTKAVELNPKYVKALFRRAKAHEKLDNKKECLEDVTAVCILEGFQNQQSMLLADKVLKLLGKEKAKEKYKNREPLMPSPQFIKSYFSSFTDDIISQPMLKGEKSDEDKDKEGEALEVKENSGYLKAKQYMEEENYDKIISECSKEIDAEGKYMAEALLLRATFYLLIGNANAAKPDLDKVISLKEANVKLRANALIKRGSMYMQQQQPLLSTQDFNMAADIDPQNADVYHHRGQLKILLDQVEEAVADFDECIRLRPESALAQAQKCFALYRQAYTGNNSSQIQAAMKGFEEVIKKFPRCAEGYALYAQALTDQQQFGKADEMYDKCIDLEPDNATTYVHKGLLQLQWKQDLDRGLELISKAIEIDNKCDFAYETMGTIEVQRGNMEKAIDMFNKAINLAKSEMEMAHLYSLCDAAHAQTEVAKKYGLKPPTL
UniProt Q9BUB7: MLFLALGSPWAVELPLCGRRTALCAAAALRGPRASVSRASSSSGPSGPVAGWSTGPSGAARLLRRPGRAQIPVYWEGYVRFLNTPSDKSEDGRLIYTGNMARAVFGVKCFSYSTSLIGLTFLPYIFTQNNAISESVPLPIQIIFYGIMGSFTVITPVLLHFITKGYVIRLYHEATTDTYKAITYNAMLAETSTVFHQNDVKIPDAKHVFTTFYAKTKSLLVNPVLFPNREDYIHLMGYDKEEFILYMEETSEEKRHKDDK
UniProt Q15628: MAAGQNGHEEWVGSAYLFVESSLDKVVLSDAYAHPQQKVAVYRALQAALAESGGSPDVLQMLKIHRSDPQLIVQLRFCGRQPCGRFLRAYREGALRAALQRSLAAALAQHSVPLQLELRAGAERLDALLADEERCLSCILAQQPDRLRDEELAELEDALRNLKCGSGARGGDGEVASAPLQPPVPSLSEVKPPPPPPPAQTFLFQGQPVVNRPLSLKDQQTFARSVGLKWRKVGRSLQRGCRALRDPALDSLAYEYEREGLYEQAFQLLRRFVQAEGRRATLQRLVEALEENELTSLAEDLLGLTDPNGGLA
UniProt Q8N4H5: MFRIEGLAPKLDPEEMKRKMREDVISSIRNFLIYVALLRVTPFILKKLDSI

Key:
Assay in all cases: log2 fold change, soluble protein after heating vs DMSO (PISA); higher = thermal stabilisation; K562 lysate, 10 uM; active = over 0.2 and 3.5 SD of the protein, either way, in both replicates (recomputed)
[1] = compound: CS(=O)(=O)CCNCc1ccc(-c2ccc3ncnc(Nc4ccc(OCc5cccc(F)c5)c(Cl)c4)c3c2)o1 [lapatinib]
How it was run: (§1)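 Log-two fold change in thermal stability relative to solvent controls is reported from duplicates. For each sample, crude K562 extract from dounce-homogenised pellets in PBS pH 7.4 with 1 mM MgCl2, at 1 mg/mL protein, was treated with 10 μM compound for 30 min. Aliquots heated for 3 min across 48°C-58°C were pooled, brought to 0.5% NP-40 at 4°C and cleared at 21,000xg for 90 min. The supernatant was quantified by TMTpro 16plex LC-MS/MS with channel sums equalised.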

[2] = compound: CS(=O)(=O)N1CCN(Cc2cc3nc(-c4cccc5[nH]ncc45)nc(N4CCOCC4)c3s2)CC1 [pictilisib]
How it was run: as §1

[3] = compound: C[C@@H](Oc1cc(-c2cnn(C3CCNCC3)c2)cnc1N)c1c(Cl)ccc(F)c1Cl [crizotinib]
How it was run: as §1

[4] = compound: C[C@H](C1=CC=C(C=C1)C(=O)NC2=C3C=CNC3=NC=C2)N
How it was run: as §1

[5] = compound: C[C@H](Nc1ncnc2nc[nH]c12)c1cc2cccc(Cl)c2c(=O)n1-c1ccccc1 [duvelisib]
How it was run: as §1

[6] = compound: Cc1cc(Nc2cc(CN3CCOCC3)c3nc(C)c(Cc4ccc(Cl)cc4F)n3n2)n[nH]1 [gandotinib]
How it was run: as §1

[7] = compound: Cc1cc(Nc2cc(N3CCN(C)CC3)nc(Sc3ccc(NC(=O)C4CC4)cc3)n2)n[nH]1 [tozasertib]
How it was run: as §1

[8] = compound: Cc1ccc(-n2nc(C(C)(C)C)cc2NC(=O)Nc2ccc(OCCN3CCOCC3)c3ccccc23)cc1 [doramapimod]
How it was run: as §1

[9] = compound: Cc1ccc(NC(=O)c2ccc(CN3CC[C@H](N(C)C)C3)c(C(F)(F)F)c2)cc1Nc1nccc(-c2cncnc2)n1 [bafetinib]
How it was run: as §1

[10] = compound: Cc1cccc(CC(=O)N2CCc3c2ccc(-c2cn(C)c4ncnc(N)c24)c3F)n1
How it was run: as §1

[11] = compound: Cc1cn(-c2cc(NC(=O)c3ccc(C)c(Nc4nccc(-c5cccnc5)n4)c3)cc(C(F)(F)F)c2)cn1 [nilotinib]
How it was run: as §1

[12] = compound: Cc1nc(Nc2n[nH]c3c2CN(C(=O)N[C@H](CN(C)C)c2ccccc2)C3(C)C)c2sccc2n1
How it was run: as §1

[13] = compound: Cc1nc(Nc2ncc(C(=O)Nc3c(C)cccc3Cl)s2)cc(N2CCN(CCO)CC2)n1 [dasatinib]
How it was run: as §1

[14] = compound: Cc1ncc(-c2ccnc(Nc3ccc(S(C)(=O)=O)cc3)n2)n1C(C)C
How it was run: as §1

[15] = compound: Cn1cc(-c2ccc3c(c2)CCN3C(=O)Cc2cccc(C(F)(F)F)c2)c2c(N)ncnc21
How it was run: as §1

[16] = compound: Cn1cc(CNCC2CCN(c3ncc(C(=O)NO)cn3)CC2)c2ccccc21 [quisinostat]
How it was run: as §1

[17] = compound: Cn1cncc1[C@@](N)(c1ccc(Cl)cc1)c1ccc2c(c1)c(-c1cccc(Cl)c1)cc(=O)n2C [tipifarnib]
How it was run: as §1

[18] = compound: NC(=O)Nc1cc(-c2cccc(F)c2)sc1C(=O)N[C@H]1CCCNC1
How it was run: as §1

[19] = compound: NC(=O)c1cnc(N[C@@H]2CCCC[C@@H]2N)nc1Nc1cccc(-n2nccn2)c1
How it was run: as §1

[20] = compound: NC1(c2ccc(-c3nc4ccn5c(=O)[nH]nc5c4cc3-c3ccccc3)cc2)CCC1
How it was run: as §1

Measured: log2 fold change

TPT1 (UniProt P13693)
inactive: [1] 0.029 | [2] 0.009 | [3] 0.022 | [4] 0.064 | [5] 0.005 | [6] -0.001 | [7] -0.018 | [8] -0.019 | [9] 0.033 | [10] -0.042 | [11] 0.01 | [12] -0.002 | [13] 0 | [14] 0.014 | [15] -0.005 | [16] 0.002 | [17] -0.011 | [18] 0.002 | [19] -0.024 | [20] -0.011

TOMM34 (UniProt Q15785)
inactive: [1] 0.012 | [2] -0.019 | [3] -0.05 | [4] 0.007 | [5] 0.007 | [6] -0.054 | [7] 0.009 | [8] 0.037 | [9] -0.022 | [10] 0.005 | [11] 0.027 | [12] -0.001 | [13] -0.033 | [14] -0.003 | [15] -0.021 | [16] -0.06 | [17] -0.01 | [18] 0.009 | [19] -0.023 | [20] 0.011

TRABD (UniProt Q9H4I3)
inactive: [1] 0.058 | [2] 0.023 | [3] -0.033 | [4] -0.07 | [5] -0.054 | [6] 0.061 | [7] 0.005 | [8] 0.004 | [9] -0.011 | [10] 0.06 | [11] 0.058 | [12] -0.017 | [13] 0.072 | [14] -0.026 | [15] -0.013 | [16] 0.006 | [17] -0.003 | [18] -0.038 | [19] 0 | [20] -0.015

TMUB1 (UniProt Q9BVT8)
inactive: [1] 0.019 | [2] -0.051 | [3] -0.085 | [4] 0.089 | [5] -0.112 | [6] -0.143 | [7] -0.186 | [8] -0.004 | [9] -0.016 | [10] -0.028 | [11] -0.008 | [12] -0.003 | [13] -0.059 | [14] 0.004 | [15] 0.101 | [16] -0.051 | [17] -0.055 | [18] 0.018 | [19] -0.003 | [20] -0.007

TOR1AIP1 isoform 3 (UniProt Q5JTV8)
inactive: [1] -0.017 | [2] -0.012 | [3] 0.008 | [4] -0.043 | [5] -0.031 | [6] 0.048 | [7] -0.019 | [8] -0.008 | [9] 0.018 | [10] 0.087 | [11] 0.022 | [12] 0.03 | [13] -0.013 | [14] -0.008 | [15] 0.043 | [16] 0.006 | [17] -0.021 | [18] 0.016 | [19] 0.018 | [20] 0.002

TMEM208 (UniProt Q9BTX3)
inactive: [1] 0 | [2] 0.007 | [3] -0.102 | [4] -0.348 | [5] -0.135 | [6] 0.136 | [7] 0.041 | [8] -0.006 | [9] -0.033 | [10] 0.239 | [11] -0.102 | [12] 0.061 | [13] -0.017 | [14] -0.111 | [15] 0.05 | [16] -0.165 | [17] -0.027 | [18] 0.065 | [19] -0.013 | [20] 0.098

TNFRSF10A (UniProt O00220)
inactive: [1] 0.038 | [2] -0.03 | [3] -0.025 | [4] 0.109 | [5] -0.024 | [6] -0.104 | [7] 0.045 | [8] 0.006 | [9] -0.024 | [10] -0.106 | [11] 0.067 | [12] 0.036 | [13] 0.03 | [14] 0.064 | [15] 0.02 | [16] 0.015 | [17] -0.035 | [18] 0.011 | [19] 0 | [20] 0.029

TMEM68 (UniProt Q96MH6)
inactive: [1] -0.018 | [2] -0.037 | [3] -0.016 | [4] -0.079 | [5] -0.033 | [6] 0.067 | [7] 0.059 | [8] 0.045 | [9] -0.028 | [10] 0.08 | [11] 0.039 | [12] -0.117 | [13] -0.03 | [14] -0.022 | [15] -0.037 | [16] -0.033 | [17] -0.008 | [18] 0.04 | [19] -0.043 | [20] -0.073

TMOD3 (UniProt Q9NYL9)
inactive: [1] -0.008 | [2] 0.038 | [3] -0.05 | [4] -0.004 | [5] -0.002 | [6] 0.014 | [7] -0.003 | [8] 0.036 | [9] -0.041 | [10] 0.022 | [11] -0.006 | [12] -0.009 | [13] 0.025 | [14] 0.015 | [15] -0.002 | [16] -0.086 | [17] -0.011 | [18] 0.009 | [19] 0.009 | [20] -0.032

TMEM33 (UniProt P57088)
inactive: [1] -0.032 | [2] 0.012 | [3] -0.022 | [4] -0.034 | [5] -0.036 | [6] 0.067 | [7] -0.022 | [8] 0.011 | [9] -0.055 | [10] 0.019 | [11] 0.034 | [12] -0.007 | [13] 0.041 | [14] -0.006 | [15] -0.009 | [16] -0.02 | [17] -0.049 | [18] 0.005 | [19] -0.011 | [20] -0.016

Looked up one by one from above, two records:
TMEM208 (UniProt Q9BTX3)
inactive: [1] 0 | [2] 0.007 | [3] -0.102 | [4] -0.348 | [5] -0.135 | [6] 0.136 | [7] 0.041 | [8] -0.006 | [9] -0.033 | [10] 0.239 | [11] -0.102 | [12] 0.061 | [13] -0.017 | [14] -0.111 | [15] 0.05 | [16] -0.165 | [17] -0.027 | [18] 0.065 | [19] -0.013 | [20] 0.098

TMOD3 (UniProt Q9NYL9)
inactive: [1] -0.008 | [2] 0.038 | [3] -0.05 | [4] -0.004 | [5] -0.002 | [6] 0.014 | [7] -0.003 | [8] 0.036 | [9] -0.041 | [10] 0.022 | [11] -0.006 | [12] -0.009 | [13] 0.025 | [14] 0.015 | [15] -0.002 | [16] -0.086 | [17] -0.011 | [18] 0.009 | [19] 0.009 | [20] -0.032

Continued:

TPM3 (UniProt P06753)
inactive: [1] 0.014 | [2] 0.005 | [3] 0.022 | [4] 0.123 | [5] 0.009 | [6] -0.039 | [7] -0.003 | [8] -0.022 | [9] 0.052 | [10] -0.088 | [11] 0.014 | [12] -0.033 | [13] 0.023 | [14] 0.028 | [15] -0.012 | [16] 0.046 | [17] 0.033 | [18] -0.042 | [19] -0.02 | [20] 0.034

TNRC6B (UniProt Q9UPQ9)
inactive: [1] 0.004 | [2] -0.059 | [3] 0.049 | [4] -0.02 | [5] 0.005 | [6] 0.02 | [7] -0.043 | [8] -0.118 | [9] -0.08 | [10] 0.005 | [11] -0.395 | [12] 0.014 | [13] 0.01 | [14] 0.002 | [15] 0.025 | [16] 0.021 | [17] -0.004 | [18] 0.073 | [19] 0.005 | [20] 0.014

TOMM70 (UniProt O94826)
inactive: [1] 0.036 | [2] -0.02 | [3] 0.018 | [4] 0.133 | [5] -0.013 | [6] -0.104 | [7] 0.064 | [8] 0.024 | [9] -0.001 | [10] -0.04 | [11] -0.042 | [12] -0.042 | [13] -0.018 | [14] -0.031 | [15] -0.003 | [16] 0.017 | [17] -0.043 | [18] -0.012 | [19] 0.058 | [20] 0.061

TMEM70 (UniProt Q9BUB7)
inactive: [1] -0.002 | [2] -0.012 | [3] -0.082 | [5] 0.011 | [6] 0.057 | [7] -0.014 | [8] 0.092 | [9] -0.038 | [10] 0.138 | [11] -0.05 | [12] -0.046 | [13] -0.065 | [14] 0.023 | [15] -0.003 | [16] -0.206 | [17] -0.007 | [18] 0.02 | [19] 0.009 | [20] -0.001
active: [4] -0.304

TRADD (UniProt Q15628)
inactive: [1] -0.015 | [2] -0.011 | [3] -0.003 | [4] -0.022 | [5] -0.081 | [6] -0.03 | [7] -0.011 | [8] -0.022 | [9] -0.034 | [10] 0.035 | [11] 0.009 | [12] -0.02 | [13] 0.065 | [14] -0.013 | [15] -0.002 | [16] -0.018 | [17] 0.053 | [18] 0.044 | [19] 0.01 | [20] 0.041

TOMM5 (UniProt Q8N4H5)
inactive: [1] -0.044 | [2] 0.022 | [3] -0.027 | [4] 0.412 | [5] 0.014 | [6] -0.149 | [7] -0.172 | [8] 0.027 | [9] 0.01 | [10] -0.18 | [11] 0.045 | [12] 0.014 | [13] 0.095 | [14] 0.409 | [15] 0.025 | [16] 0.034 | [17] -0.046 | [18] -0.016 | [19] 0.022 | [20] 0.011
